Our source for the binding values is article PMC6527865.

No constants are given. Whether binding was seen depends on the method and setting. In cells and extracts the contact can be indirect. Binding calls can cover weak binding; strength is not graded here.

This experiment deals with Scc2N with a C-terminal Pk epitope tag (S. cerevisiae). The experiment in a line: co-IP; full-length Scc2, Scc2N or Scc2C immunoprecipitated from extracts of cells depleted of endogenous Scc2; co-immunoprecipitation of Scc4 (Figure S5B).

B1: Scc4 (protein, UniProt P40090 1-624)
chain: MENLGDKLSISQVYHLAQEYRDHAYSIANKIGSEEGLKQYYGLMNMSIQMFQLLKTKCTLSVLEDSKVTFEMVELLIQETYNFDLAELYISSLKERLQTHQSDTDLVEEIMRCEFLLLHDLPLMRDSKFHYKIALRNCNELVQYMVNLQDELYQNWASVFQYVGVMLCIKLKQHRRVKTSFHGLLSQCREKSQWKWFLNLCYVNYLLNERFPIPEDALQELRSTELHTVGPELYAWKLALEMVIQLCKDGNITDHLNEFKNFFDTNKQSLVTNEGKGCVIKIMPRIALKVELPMIFHYKELKNILLLLQSVSYIVNCYDEKGNFSRKFLPKVYSTTQKLIKNIAAGGVSMNELDSRIQTYKSILEFCEFYKVWEQTLLKGAVVTTESPKLGPSPGYVRLLQAMKVQFEGGGAVEEYTRLAQSGGTSSEVKMISLLNCYTVQAARVSRCSGDKQGELVEQCNKVWLQVEKLLQETDLQFNPIWECTVTILWLFSHFEPFSWNPLPCSDKQRAEYVSKLREFYSSNKFVAGEAVADNRFKLKKALLLQILVNYLGGRMLEHDLGEIYAISAKCFDMCRQQGGMRKVQYVIGIWHLMNCTVAMRGKDVALTNAKLEALVKQITSVKQ
On to B1, for which the binding entry is “binds”.
